Measured values: PubChem BioAssay AID493014 (National Center for Advancing Translational Sciences (NCATS), 2011)
The whole screen tested about 340,000 compounds, of which about 170 (0.05%) were called active. This list was built around the results that the source calls inconclusive (neither active nor inactive); the mix of calls is not that of the screen. The call rests on the fitted dose curve; in most records, active means well fitted inhibition curve with a large enough effect in the signal ratio, with a control signal flat (not every such curve was filed as active); inconclusive means small, poorly fitted or top-dose-only effect, or effect the other way, or a change in a side signal; inactive means flat fitted curve, though single readings scatter; the % refers to the signal ratio. Potencies of inconclusive entries are doubtful fits and often do not repeat.

Assay: qHTS Assay to Find Inhibitors of Chronic Active B-Cell Receptor Signaling;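 on activity change, negative = inhibition: plate controls were basal doxycycline-induced cells for no effect and cells given 10 µM MG132 for full effect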
Conditions: ABC-DLBCL IkBa-CBG/CBR reporter, luminescence ratio (green luciferase fused to IkBa over red control in TMD8 lymphoma cells), 4 h; activity change, negative = inhibition: at 46.1 µM (top of the series) unless noted
Summary of the method: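 TMD8 ABC-DLBCL cells carrying doxycycline-inducible green luciferase fused to IkappaBalpha plus unfused red luciferase were exposed to compounds (up to 46 uM) for 4 hrs at 37C. Activity came from the overlap-corrected green/red luminescence ratio.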
Potency means the concentration at half of the fitted maximal effect.

| SMILES | activity change, negative = inhibition | Potency |
| --- | --- | --- |
| CCNC(=S)NNC(=O)c1csc(C)c1 | inconclusive: -7.95% | – |
| O=C(COC(=O)c1cccc(S(=O)(=O)N2CCOCC2)c1)Nc1ccc2c(c1)OCO2 | inconclusive: 1.35% | – |
| CCOC(=O)C1=C(COC(=O)c2ccccc2[N+](=O)[O-])NC(=O)NC1C (configuration not stated) | inconclusive: -10.4% | – |
| CCn1ccnc1CN1CCN(CC(C)C)C(CCO)C1 (configuration not stated) | inconclusive: -8.02% | – |
| [O-][n+]1c2cc(C(F)(F)F)ccc2c2n1CCN=C2c1ccc(Cl)cc1 | inconclusive: -23.8% | – |
| COc1cc(Br)c(-c2sc(Nc3ccccc3)n[n+]2-c2ccc(F)cc2)cc1OC | – | inconclusive: 11.2 µM [falling, partial curve, poor fit] |
| Cc1[nH]c2ccccc2c1CN1CCC(Cc2ccccc2)CC1 | inconclusive: -18.5% | – |
| Cc1ccc(C(=O)c2cc3c(cc2N)OCCO3)cc1 | – | inconclusive: 16.4 µM [falling, partial curve] |
| C/C(=N\NC(=O)c1ccc(C)cc1C)c1ccc2c(c1)Nc1ccccc1S2 | – | inconclusive: 4.61 µM [rising, partial curve, poor fit] |
| CCc1ccc(NC(=O)c2ccc(C3SCC(=O)N3CCc3ccccc3)cc2)cc1 (configuration not stated) | inconclusive: -2.65% | – |
| COc1ccc(C(=O)NCCSCc2ccccc2)cc1OC | inconclusive: 4.94% | – |
| O=C(CNC(=O)c1ccccc1F)N/N=C/c1cccs1 | inactive | – |
| CCOC(=O)c1sc(=S)n(C)c1NC(=O)c1cccc(Br)c1 | inconclusive: 6.78% | – |
| Cc1onc(-c2c(F)cccc2Cl)c1C(=O)NC1=NCCS1 | inactive | – |
| CC1CCCCC1NC(=S)NC(=O)c1sc2ccccc2c1Cl (configuration not stated) | – | inconclusive: 0.447 µM [falling, full curve, poor fit] |
| Cc1cc(C(=O)CCl)c(C)n1CC1COc2ccccc2O1 (configuration not stated) | inconclusive: 5.21% | – |
| Cc1ccc2c(=O)n3c(nc2c1)C(Cc1ccccc1)NC(=O)c1ccc(Cl)cc1-3 (configuration not stated) | inconclusive: 5.92% | – |
| CSc1ccc(COC(=O)c2cc([N+](=O)[O-])ccc2N2CCOCC2)cc1 | – | inconclusive: 0.326 µM [falling, full curve, poor fit] |
| O=S(=O)(c1ccccc1)N1N=C(c2ccc(Cl)cc2)CC1c1ccco1 (configuration not stated) | inconclusive: -0.16% | – |
| COc1ccc(Cc2nc3ccccc3n2CC(=O)N/N=C/c2ccc(O)cc2)cc1OC | – | inconclusive: 18.4 µM [falling, partial curve, poor fit] |
| CCOC(=O)N1CCC(NC(=O)CCN2C(=O)C3C4C=CC(C4)C3C2=O)CC1 (configuration not stated) | inconclusive: 6.15% | – |
| COc1c2ccoc2nc2c(OC)c(OC[C@@H](O)C(C)(C)O)ccc12 | – | inconclusive: 29.1 µM [falling, single point] |
| O=[N+]([O-])c1cccc(C(=Nc2ccccc2)NO)c1 | inconclusive: -19.8% | – |
| Cc1noc(C)c1CCC(=O)N1CCCC(CCC(=O)NCc2ccccc2F)C1 (configuration not stated) | inconclusive: 1.32% | – |
| Cc1sc2ncnc(SCC(=O)N3CCC(c4noc5ccc(F)cc45)CC3)c2c1C | – | inconclusive: 11.6 µM [falling, partial curve] |
| O=C1NC(=O)/C(=C/c2ccc(-c3cccc([N+](=O)[O-])c3)o2)S1 | inactive | – |

| SMILES | activity change, negative = inhibition | Potency |
| --- | --- | --- |
| O=C(CCNS(=O)(=O)c1ccc(Br)s1)Nc1ccc(Cl)cc1 | inactive | – |
| O=C(Nc1ncc([N+](=O)[O-])s1)C1CC(=O)N(c2ccc(F)cc2)C1 (configuration not stated) | – | inconclusive: 11.2 µM [rising, partial curve, poor fit] |
| CCC(=O)N1CCN(c2ccnc3cc(Cl)ccc23)CC1 | inactive | – |
| Cc1nc(-c2ccc(S(=O)(=O)N3CCCCCC3)cc2)cs1 | inconclusive: -0.421% | – |
| Cc1cc(C)c(Cn2c3ccccc3c3cnn(CC(=O)NCc4ccccn4)c(=O)c32)c(C)c1 | inactive | – |
| Cc1csc2ncnc(NNC(=O)c3ccc(Cl)cc3)c12 | – | inconclusive: 35.5 µM [falling, single point] |
| CN(C)S(=O)(=O)c1ccc(NC(=O)N2CCN(c3ccccc3Cl)CC2)cc1 | inconclusive: 3.36% | – |
| CCCCCC(=O)NC(=S)Nc1ccc(Br)cc1C | inconclusive: 8.48% | – |
| CS(=O)(=O)c1cccc(C(=O)OCCCC(=O)c2ccccc2)c1 | inconclusive: -1.53% | – |
| C=CCNc1cc(C)oc(=O)c1C(=O)CCC | inconclusive: 10.6% | – |
| CCOC(=O)c1sc2c(c1C)c(=O)n(Cc1ccccc1)c(=O)n2CCN(C)C | inconclusive: 1.58% | – |
| COC(=O)c1ccc(=O)c2nc3/c(=C/O)c(O)cc(=O)c3[nH]c12 | inconclusive: 28.9% | – |
| COc1cc(-c2cc3nc4ccccc4n3c(N)c2C#N)cc(OC)c1OC | inactive | – |
| COCCNC(=O)c1nc2c(nnn2Cc2cc(C)ccc2C)c(=O)[nH]1 | – | inconclusive: 6.51 µM [falling, partial curve, poor fit] |
| Cc1ccc(/C=C/C(=O)Nc2ccc(S(N)(=O)=O)cc2)o1 | inconclusive: 20.6% | – |
| O=C(Nc1ccnn1C1CCN(C/C=C/c2ccccc2)CC1)c1ccccc1Cl | inactive | – |
| Cc1ccc(S(=O)(=O)N2CCC3(CC2)CC(=O)c2ccccc2O3)cc1 | inactive | – |
| COc1ccc(N/C(C)=C/C(=O)c2ccccc2)cc1 | inconclusive: 2.59% | – |
| COc1cc(C)c(NC(=O)C(=S)NCc2ccccc2)cc1C | inconclusive: 8.42% | – |
| O=C(Nc1cccnc1)C1CCN(S(=O)(=O)c2cccs2)CC1 | inactive | – |
| COc1cc(/C=N/NC(=O)c2ccc(NS(=O)(=O)c3cccs3)cc2)cc(OC)c1O | – | inconclusive: 20.6 µM [falling, partial curve] |
| Cc1cc(-c2nnc(-c3cccc(Cl)c3)o2)no1 | inconclusive: 5.11% | – |
| CC(/C=C/c1cccc([N+](=O)[O-])c1)=N\NC(=O)c1ccncc1 | inconclusive: -16.3% | – |
| CCOC(=O)c1cc(C#N)c(N2CCN(C(=O)c3cccc(C(F)(F)F)c3)CC2)nc1C(F)(F)F | inactive | – |
| CC(=O)NCCSC(=O)c1ccc(F)cc1 | inconclusive: -4.77% | – |
| CC(=O)c1c(C)[nH]c(C(=O)NCCC2=CCCCC2)c1C | – | inconclusive: 1.3 µM [rising, full curve] |

Already shown: 3 of the compounds above.

| SMILES | activity change, negative = inhibition | Potency |
| --- | --- | --- |
| Cc1ccc(/C=C/C(=O)Nc2ccc(S(N)(=O)=O)cc2)o1 | inconclusive: 20.6% | – |
| O=C(Nc1ccnn1C1CCN(C/C=C/c2ccccc2)CC1)c1ccccc1Cl | inactive | – |
| Cc1ccc(S(=O)(=O)N2CCC3(CC2)CC(=O)c2ccccc2O3)cc1 | inactive | – |
